Assay results reported in patent US20190263931A1 (IMMUNOMETABOLISM DEVELOPMENT, published 2019).
No constants are given. Whether binding was seen depends on the method and setting. Binding can be weak; no strength is given.

What was measured:
[1] = target: cynomolgus MCT1 (cynomolgus monkey); assay: flow cytometry on PBMCs (FIG. 12A-D)
rabbit MCT1 (rabbit) [2] = assay: flow cytometry on PBMCs (FIG. 12A-D)
rabbit MCT1 (rabbit) [3] = assay: flow cytometry on rabbit PBMCs (FIG. 12C)
[4] = target: cynomolgus MCT1 (cynomolgus monkey); assay: flow cytometry on cynomolgus PBMCs (FIG. 12B)
rabbit MCT1 (rabbit) [5] = assay: staining of rabbit red blood cells (FIG. 18B)
rabbit MCT1 (rabbit) [6] = assay: flow cytometry, rabbit red blood cells
[7] = target: cynomolgus MCT1 (cynomolgus monkey); assay: staining of purified cynomolgus red blood cells (FIG. 18A)
rabbit MCT1 (rabbit) [8] = assay: staining of rabbit red blood cells with MCT1 Ab1 (FIG. 18B)
[9] = target: cynomolgus MCT1 (cynomolgus monkey); assay: flow cytometry, purified cynomolgus red blood cells
[10] = target: cynomolgus MCT1 (cynomolgus monkey); assay: staining of cynomolgus red blood cells with MCT1 Ab1 (FIG. 18A)
[11] = target: cynomolgus MCT1 (cynomolgus monkey); assay: flow cytometry, red blood cells of single cynomolgus monkeys
rabbit MCT1 (rabbit) [12] = assay: flow cytometry, rabbit PBMC (live gate), resting and stimulated
[13] = target: cynomolgus MCT1 (cynomolgus monkey); assay: flow cytometry, cynomolgus PBMC (live gate), resting and stimulated

binding [1]: binds
binding (rabbit MCT1 (rabbit) [2]): binds
binding (rabbit MCT1 (rabbit) [3]): binds
binding [4]: binds
binding (rabbit MCT1 (rabbit) [5]): binds
binding (rabbit MCT1 (rabbit) [6]): binds
binding [7]: binds
binding (rabbit MCT1 (rabbit) [8]): binds
binding [9]: binds
binding [10]: binds
binding [11]: binds
binding (rabbit MCT1 (rabbit) [12]): binds
binding [13]: binds
B1: MCT1 Ab1 (antibody, V domains shown)
VH: QVQLKATGPGLVQPTQTLSITCTVSGFSLTNYHLQWVRQTPGKGLEWMGFIRSSGNTEYNSEFKSRLSISRDTSKNQVFLKMNSLKTDDTGVYYCARNSWYHGTYYSPGYYVMDAWGQGASVTVSS
VL: NIHLTQSPSLLSASVGDRVTLSCKGSQNINNYLAWFQQKFGETPKLLIYNRHNLQTGIPSRFSGSGSGTDYTLTINSLQPEDVATYFCYQYSDGYTFGAGTKLELK
notes: also called INX310; Rat Anti-MCT1 antibody
